Measured values taken from PubChem BioAssay AID493014 (National Center for Advancing Translational Sciences (NCATS), 2011).
This is one part of the list. Further columns of the screen follow, without active or inactive calls. The list favours compounds with an active or inconclusive main result. The note in brackets gives the kind of curve behind each potency; many fits are weak.

Test: qHTS Assay to Find Inhibitors of Chronic Active B-Cell Receptor Signaling
Settings: ABC-DLBCL IkBa-CBG/CBR reporter, luminescence ratio (green luciferase fused to IkBa over red control in TMD8 lymphoma cells), 4 h
In short: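 TMD8 ABC-DLBCL cells carrying doxycycline-inducible green luciferase fused to IkappaBalpha plus unfused red luciferase were exposed to compounds (up to 46 uM) for 4 hrs at 37C. Activity came from the overlap-corrected green/red luminescence ratio.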

[1] = measured here: CBR red luminescence, cell number
[2] = measured here: IkBa-CBG green luminescence

Row | SMILES | AC50 [1] | AC50 [2]
1 | C=CCn1c(Sc2nnc(C)s2)nc2c1c(=O)[nH]c(=O)n2C | 4.47 µM [rising, partial curve, poor fit] | –
2 | COC(=O)C1CCN(C(=O)COC(=O)c2n[nH]c3ccccc23)CC1 | 3.98 µM [falling, partial curve] | –
3 | Cc1ccccc1-c1nc(S(=O)(=O)c2ccccc2)c(NCCCN2CCOCC2)o1 | 0.231 µM [rising, partial curve, poor fit] | –
4 | O=C(Nc1ccc2c(c1)CCC2)Nc1ccccc1Cl | 10 µM [falling, partial curve, poor fit] | –
5 | O=C(N/N=C/c1ccco1)c1cc(-c2ccccc2)nc2ccccc12 | 14.1 µM [falling, partial curve, poor fit] | –
6 | CCCCN(C(=O)CCC(=O)OCC(=O)NCc1ccccc1)c1c(N)n(CCC)c(=O)[nH]c1=O | 0.146 µM [falling, full curve, poor fit] | –
7 | CCc1cc(=O)oc2c3c(cc(OCC(=O)NCc4ccco4)c12)OC(C)(C)CC3 | 35.5 µM [falling, single point] | –
8 | Cc1nc(C)c(C(=O)NCc2ccccc2Cl)o1 | 20 µM [falling, single point] | –
9 | O=C(CN1CCCC1)Nc1ccc(OCc2ccccc2)cc1 | 17.8 µM [rising, single point] | –
10 | CCCCC(=O)NC(=S)Nc1cc(C(=O)O)ccc1OC | 35.5 µM [falling, partial curve, poor fit] | –
11 | CCCn1nnc(NC(=S)NC(=O)c2cccs2)n1 | 29.1 µM [falling, single point] | –
12 | O=C1N=C(N2CCCCC2)S/C1=C/C1=Cc2ccccc2OC1 | 0.708 µM [falling, partial curve, poor fit] | –
13 | CCOC(=O)Cc1csc(NC(=O)c2cc(=O)c3ccccc3o2)n1 | 11.2 µM [falling, partial curve] | –
14 | CCC/C(=N/NC(=O)c1ccccc1Cl)c1ccccc1 | 14.1 µM [falling, partial curve, poor fit] | –
15 | CS(=O)(=O)c1ccccc1-c1nnc(-c2ccc(Cl)cc2)o1 | 11.2 µM [rising, partial curve, poor fit] | –
16 | C/C(=N\Nc1cccc(C(=O)O)c1)c1cc2ccccc2o1 | 12.6 µM [falling, partial curve] | –
17 | O=C(Nc1ccc(Br)cc1Cl)N1CCOCC1 | 20 µM [rising, partial curve, poor fit] | –
18 | CC(=O)Nc1ccc2nc(NC(=O)c3ccc([N+](=O)[O-])s3)sc2c1 | 22.4 µM [falling, single point] | –
19 | Cc1ccc2c(c1)N(CC(=O)OCC(=O)NCc1ccccc1)C(=O)CO2 | 17.8 µM [rising, partial curve, poor fit] | –
20 | COCCSc1nnc(NC(=O)CCS(=O)(=O)Cc2ccccc2)s1 | 10 µM [falling, partial curve] | –
21 | O=S(=O)(NCc1ccccc1)NCc1cccc(C(F)(F)F)c1 | 12.6 µM [rising, partial curve, poor fit] | –
22 | CNC(=S)N(Cc1cccs1)Cc1cc2cc(OC)c(OC)cc2[nH]c1=O | 25.9 µM [rising, single point] | –

Full records, looked up by structure.
`Cc1ccc2c(c1)N(CC(=O)OCC(=O)NCc1ccccc1)C(=O)CO2` as listed: AC50 [1]: 17.8 µM [rising, partial curve, poor fit]
`CCCn1nnc(NC(=S)NC(=O)c2cccs2)n1` as listed: AC50 [1]: 29.1 µM [falling, single point]
`CCc1cc(=O)oc2c3c(cc(OCC(=O)NCc4ccco4)c12)OC(C)(C)CC3` as listed: AC50 [1]: 35.5 µM [falling, single point]

The list continues:

Row | SMILES | AC50 [1] | AC50 [2]
23 | COc1cccc(N2CC(C)Cn3c2nc2c3c(=O)[nH]c(=O)n2C)c1 (stereo unspecified) | 6.31 µM [rising, full curve, poor fit] | –
24 | CCC(C)C(=O)OCC1(c2ccc(C)cc2OC(=O)C(C)C)CO1 (stereo unspecified) | 35.5 µM [falling, single point] | –
25 | COC(=O)c1ccccc1NC(=O)COc1ccccc1[N+](=O)[O-] | 1.26 µM [falling, partial curve, poor fit] | –
26 | Cc1ccc(-c2nc3ncccn3c2NC2CCCCC2)o1 | 0.146 µM [falling, partial curve, poor fit] | –
27 | COc1cc(NC(=O)c2cccc(Cl)c2)ccc1NC(=O)c1cccs1 | 8.91 µM [rising, single point] | –
28 | CCc1ccccc1OCCCOc1ccc(OC)cc1 | 5.62 µM [rising, single point] | –
29 | COc1ccc2[nH]c(=O)c(C3c4cc(OC)c(OC)cc4CCN3C(=O)c3ccco3)cc2c1 (stereo unspecified) | 0.631 µM [rising, full curve, poor fit] | 3.98 µM [falling, partial curve, poor fit]
30 | CCc1ccc(NC(=O)CSc2ccc(-c3ccco3)nn2)cc1 | 1.58 µM [rising, full curve, poor fit] | –
31 | O=C(NCCN1CCCCC1)Nc1ccc(Cl)cc1 | 10 µM [rising, partial curve, poor fit] | –
32 | CNC(C)C#Cc1ccc2c(=O)c3c(OC)cccc3oc2c1 (stereo unspecified) | 6.31 µM [rising, single point] | –
33 | CC(C)(C)N1CC(c2nc3ccccc3n2CCOc2ccccc2)CC1=O (stereo unspecified) | 7.31 µM [rising, partial curve, poor fit] | –
34 | Cc1c(C(=O)Nc2ccc(S(=O)(=O)N(C)C3CCN(C)CC3)cc2)oc2c(Cl)cccc12 | 29.1 µM [falling, single point] | –
35 | Cc1ccc(-n2cc3ccc([N+](=O)[O-])cc3n2)cc1 | 0.146 µM [rising, full curve] | –
36 | Cc1cccc2c1[nH]c1nc(N/N=C\c3ccco3)nnc12 | 2.59 µM [falling, partial curve] | –
37 | O=C(/C(=C/O)N=Nc1ccc(Cl)cc1)c1ccncc1 | 4.47 µM [rising, partial curve, poor fit] | –
38 | c1ccc(Nc2cccc3c(Nc4ccccc4)cccc23)cc1 | 4.47 µM [rising, partial curve] | –
39 | COc1ccc(-c2n[nH]c(C)c2-c2cc(OC)ccc2O)cc1 | 0.326 µM [falling, full curve] | –
40 | C/C=C(/C)C(=O)Nc1cccc(C2=NOC3(C2)C[C@H](C(N)=O)N(C(=O)c2ccc(Cl)cc2)C3)c1 (stereo partly specified) | 14.1 µM [falling, single point] | –
41 | CC(C)Nc1nc(NNc2nc(Cl)nc(NC(C)(C)C)n2)nc(NC(C)C)n1 | 10 µM [rising, partial curve] | –
42 | NS(=O)(=O)c1cc(C(=O)N2CCNC(=O)C2)ccc1Cl | 35.5 µM [rising, single point] | –
43 | CS(=O)(=O)N(CC(=O)Nc1cccc(Cl)c1)c1ccccc1Cl | 20.6 µM [falling, single point] | –
44 | CNc1ccc2c3c(cccc13)C(=O)N(C)C2=O | 10 µM [falling, partial curve] | –

Row | SMILES | AC50 [1] | AC50 [2]
45 | N/C(=N\OC(=O)N1CCOCC1)c1ccc(Br)cc1 | 35.5 µM [falling, single point] | –
46 | C/C(=N\NC(=O)CSCc1ccc(Cl)cc1)c1ccc(NC(=O)c2ccccc2)cc1 | 25.9 µM [falling, single point] | –
47 | Cc1cc(NS(=O)(=O)c2ccc(Nc3nc(-c4sc(NC(=O)c5ccccc5)nc4C)cs3)cc2)no1 | 8.2 µM [falling, partial curve, poor fit] | –
48 | NC(=S)N/N=C/c1ccccc1[N+](=O)[O-] | 17.8 µM [rising, partial curve, poor fit] | –
49 | CCCc1cc(=O)[nH]c(Nc2ccc(Cl)cc2)n1 | 2 µM [rising, partial curve, poor fit] | –
50 | CCN(CC)CCNC(=O)c1c(C)oc2cc(Br)c(OC)cc12 | 35.5 µM [falling, single point] | –
51 | CCn1ccc(C(=O)Oc2ccc(C(C)C)cc2)n1 | 20.6 µM [rising, partial curve] | –
52 | CC(C)c1ccc(NC(=O)COc2ccccc2)cc1 | 2.51 µM [rising, full curve] | –
53 | COc1ccccc1S(=O)(=O)Cc1ccc(C(=O)N2CCN(c3cccc(Cl)c3)CC2)o1 | 35.5 µM [falling, single point] | –
54 | Cc1cccc(NC(=O)C2CCN(S(=O)(=O)c3cccc4cccnc34)CC2)n1 | 11.2 µM [falling, partial curve, poor fit] | –
55 | CC(C)N(C(=O)[C@H]1C[C@H](CC(=O)NCCCN(C)C)C(=O)N2CCc3c([nH]c4cc(-c5ccco5)ccc34)[C@]12C)C(C)C | – | 20.6 µM [falling, single point]
56 | Cc1cc(C)c2c(N)c(C(=O)NC3CCCC3)sc2n1 | 12.6 µM [falling, single point] | –
57 | COc1cc(C(=O)Oc2cc(N)n(S(=O)(=O)c3ccccc3)n2)cc(OC)c1OC | 22.4 µM [falling, single point] | –
58 | CN(CC(=O)NCC(c1ccccc1)N1CCCC1)S(=O)(=O)c1ccc(Cl)cc1 (stereo unspecified) | 23.1 µM [falling, single point] | –
59 | O=C(Nc1cccc(-c2nc3ccccc3s2)c1)c1cccs1 | 2.31 µM [falling, full curve] | –
60 | Cc1ccc(S(=O)(=O)N2CCN(Cc3ccccn3)CC2)cc1 | 3.16 µM [rising, partial curve, poor fit] | –
61 | Cc1nnc(NC(=O)CN2CCN(Cc3ccc(F)cc3Cl)CC2)s1 | 10 µM [rising, partial curve, poor fit] | –
62 | O=C(CCC(=O)Nc1nnc(C2CCCCC2)s1)NCC1CCCO1 (stereo unspecified) | 4.11 µM [rising, partial curve] | –
63 | Cc1cccc(OCC(O)Cn2c(=N)n(Cc3ccccc3)c3ccccc32)c1 (stereo unspecified) | 8.91 µM [falling, partial curve, poor fit] | –
64 | COc1ccc(N2CCN(CC(=O)Nc3c(C)cc(C)cc3C)CC2)cc1 | 0.501 µM [rising, full curve] | –
65 | CCc1ccc2[nH]c(=O)c(CN(CCCN3CCOCC3)C(=O)Nc3cccc(Cl)c3)cc2c1 | 15.8 µM [falling, partial curve] | –
